This list was built around the results that the source calls inconclusive (neither active nor inactive); the mix of calls is not that of the screen. A potency beside an inconclusive call is a rough fit, not a confirmed value. Active and inactive are the calls of the source. Rule for the calls: active = hit-call score of the fitted dose curve at least 0.9, where 1 is the maximum; inconclusive = response in the unintended direction; inactive = score below 0.9.
The molecules below were run against frog Peroxisome Proliferator-activated Receptor-gamma (PPARg), pparg (gene 397769) (UniProt P37234) (assay: ATG_frPPARg_EcoTox2: Attagene TRANS-FACTORIAL EcoTox-2 HepG2 Assay for frog Peroxisome Proliferator-activated Receptor-gamma (PPARg)).
Method: ATG_EcoTox2 is a cell-based, multiplexed assay created by modifying the existing Attagene TRANS-FACTORIAL system to include a panel of nuclear receptors from some or all the following species: human (Homo sapiens), african clawed frog (Xenopus laevis), rainbow trout (Oncorhynchus mykiss), japanese medaka (Oryzias latipes), and zebrafish (Danio rerio). The ECOTOX2-FACTORIAL format uses HepG2, a human liver cell line, with measurements taken at 24 hours after chemical dosing in a 24-well plate. ATG_frPPARg_EcoTox2 is one of 29 assay components calculated in the ATG_EcoTox2 assay. It is designed to make measurements of mRNA induction, a form of inducible reporter, as detected with fluorescence intensity signals by Reverse transcription polymerase chain reaction (RT-PCR) and Capillary electrophoresis technology.The assay endpoint ATG_frPPARg_EcoTox2 was analyzed in the positive analysis fitting direction relative to DMSO as the negative control and baseline of activity. Using a type of inducible reporter, measures of mRNA for gain-of-signal activity can be used to understand the reporter gene at the transcription factor-level as they relate to the gene PPARg. Furthermore, this assay endpoint can be referred to as a primary readout, because this assay has produced multiple assay endpoints where this one serves a reporter gene function. To generalize the intended target to other relatable targets, this assay endpoint is annotated to the nuclear receptor intended target family, where the subfamily is non-steroidal.
Human liver HepG2 cells are transiently transfected with multiple reporter transcription units (MRTUs) in 6-well plates using FuGene 6 reagent (Roche; 3 ml FuGene/1 mg DNA). The MRTU constructs are regulated by a cis-regulating element (promoter). Each RTU expresses a GAL4-UAS that regulates the transcription of a nearby target reporter gene sequence. A major difference between the CIS and TRANS system is that in CIS activities of endogenous TFs are measured, whereas the TRANS assay evaluates changes in activities of exogenous, chimeric NR-Gal4 proteins. […] At the end of 24 hour incubation, total RNA was isolated using TriZol reagent (Invitrogen). The isolated RNA is then reverse-transcribed using oligo(dT) primer and Mo-MLV reverse transcriptase (Invitrogen) with DNAse I (Ambion) treatment for 30 min. The one-tenth of the produced cDNA was amplified by PCR using Taq DNA polymerase (Invitrogen) and two reporter sequence-specific primers. The PCR products were fluorescently labeled by primer extension with 6-arboxyfluorescein (6-FAM) 5'-labeled reporter sequence-specific primer (2 min at 95 C, 20 s at 68 C and 10 min at 72 C) and these products were digested with 5U of HpaI (New England Biolabs) for 2h at 37 C. The fragments were purified using Qiaquick PCR columns (Qiagen), analyzed on an ABI 3130xL genetic analyzer (Applied Biosystems) with peak positions identified by using a set of X-rhodamine (ROX)-labeled MapMarker1000 molecular weight standards (BioVentures). The raw capillary electrophoresis data was processed using Attagraph software (Attagene).

Sequences of proteins named here, by UniProt entry; tags and fusion partners are left off. A change or cut given only in a name is not applied to a line headed by its entry.
UniProt P37234: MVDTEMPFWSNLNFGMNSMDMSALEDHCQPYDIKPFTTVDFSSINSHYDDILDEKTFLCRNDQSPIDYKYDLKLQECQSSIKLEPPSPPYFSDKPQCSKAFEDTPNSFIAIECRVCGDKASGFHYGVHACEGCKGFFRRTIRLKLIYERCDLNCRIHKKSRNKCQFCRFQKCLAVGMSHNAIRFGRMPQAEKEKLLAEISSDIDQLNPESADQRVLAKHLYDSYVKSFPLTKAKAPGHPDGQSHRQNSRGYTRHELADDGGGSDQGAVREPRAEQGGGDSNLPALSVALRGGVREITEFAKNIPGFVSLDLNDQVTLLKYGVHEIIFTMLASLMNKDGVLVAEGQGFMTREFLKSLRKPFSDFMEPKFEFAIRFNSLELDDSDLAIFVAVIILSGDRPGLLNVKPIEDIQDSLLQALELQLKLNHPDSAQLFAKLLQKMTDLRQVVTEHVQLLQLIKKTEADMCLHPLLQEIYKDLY

**Q.** With `Cc1c(C)c2c(c(C)c1O)CCC(C)(COc1ccc(CC3SC(=O)NC3=O)cc1)O2` (stereo not drawn) as the molecule, how does the AC50 read?
**A.** inconclusive: 90.3 nM

**Q.** `C[C@]12C=CC(=O)C=C1CC[C@@H]1[C@@H]2C(=O)C[C@@]2(C)[C@H]1CC[C@]2(O)C(=O)CO` was tested. Which AC50 did it give?
**A.** inconclusive: 50000 nM

**Q.** Which outcome does the source give for `C=C(c1ccc(C(=O)O)cc1)c1cc2c(cc1C)C(C)(C)CCC2(C)C` here?
**A.** inactive

**Q.** With `Cc1nc(-c2ccc(C(F)(F)F)cc2)sc1C(=O)NCc1ccc(OC(C)(C)C(=O)O)cc1` as the molecule, how does the AC50 read?
**A.** inconclusive: 467 nM

**Q.** Which AC50 does the source give for `CC(C)(Oc1ccc(C2CC2(Cl)Cl)cc1)C(=O)O` (stereo not drawn) here?
**A.** inconclusive: 5910 nM

**Q.** For `CN(CCOc1ccc(CC2SC(=O)NC2=O)cc1)c1ccccn1` (stereo not drawn), which AC50 is on record?
**A.** inconclusive: 2670 nM

**Q.** How did the outcome turn out when `Cc1cccc(Nc2cc(Cl)nc(SCC(=O)O)n2)c1C` was run?
**A.** inactive

**Q.** For `CC(C)OC(=O)C(C)(C)Oc1ccc(C(=O)c2ccc(Cl)cc2)cc1`, which outcome is on record?
**A.** inactive
